Out of some 320,000 compounds screened, about 22,000 (6.9%) were called active. The shares of active, inactive and inconclusive entries below differ from those in the screen. The call rests on the fitted dose curve; in most records, active means well fitted inhibition curve with a large enough effect; inconclusive means small, poorly fitted or top-dose-only effect, or another doubt; inactive means no such curve, though single readings can be large or run the other way. A potency beside an inconclusive call is a rough fit, not a confirmed value.
Assay: Primary qHTS for delayed death inhibitors of the malarial parasite plastid, 96 hour incubation
Conditions: P. falciparum luciferase reporter growth; series mostly up to 28.7 µM
In short: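 Two parasite generations (96 h, 37 C, 5% CO2) of compound exposure in infected erythrocytes (0.05% parasitemia, 2% hematocrit). Luciferase-reporter P. falciparum; decreased luminescence indicates inhibited growth, aimed at apicoplast-acting delayed death.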
In the case of `Cc1cc(NC(=O)/C=C/c2ccc(Cl)cc2)no1`, the Potency is reported as “inactive”. With `CCOc1cc(/C=N/NC(=O)c2cc(-c3cccnc3)nc3ccccc23)ccc1O` the Potency was “inactive”. With `Cc1ccc(S(=O)(=O)N2CCCC2C(=O)Nc2nc3ccccc3s2)cc1` (centres undefined) the Potency was inconclusive: 13.1 µM [inhibitor, single point]. In the case of `CCOC(=O)c1sc(N2C(=O)C(O)=C(C(=O)c3ccc(C)o3)C2c2cccc([N+](=O)[O-])c2)nc1C` (centres undefined), the Potency is reported as active: 14.7 µM. With `CC(=O)[C@]1(O)Cc2c(O)c3c(c(O)c2[C@@H](O[C@H]2C[C@H](N)[C@H](O)[C@H](C)O2)C1)C(=O)c1ccccc1C3=O` the Potency was active: 2.69 µM. For `Cc1nc(-c2nc(CC(=O)NNC(=O)c3ccc(Cl)cc3)cs2)cs1`, the Potency was “inactive”. In the case of `CCOC(=O)/C(C#N)=C1/CCCCCN1C`, the Potency is reported as inconclusive: 16.5 µM [inhibitor, partial curve, poor fit]. In the case of `Cc1ccccc1N1CCN(C2CCCN(C(=O)c3cc[n+]([O-])cc3)C2)CC1` (centres undefined), the Potency is reported as inconclusive: 6.57 µM [inhibitor, partial curve, poor fit]. For `CC(=O)N/N=C(\C)CC(=O)NC(C)(C)C`, the Potency was active: 3.7 µM. For `CCn1c(Cc2c(C)[nH]c3ccccc23)nnc1SCC(=O)NCc1ccccc1`, the Potency was inconclusive: 11.7 µM [inhibitor, single point]. With `Cc1onc(-c2ccccc2)c1C(=O)NCCCc1ccccc1` the Potency was “inactive”. With `COc1ccc(C(C)=O)cc1CSc1nnc(-c2ccccc2O)n1-c1ccccc1` the Potency was “inactive”. In the case of `CC(C)(C)NC(=S)/N=C(\N)N[N+](=O)[O-]`, the activity change, negative = inhibition is reported as inactive: -31.7% [at 5.75 µM]. In the case of `O=C(c1cc(C2CC2)on1)N1CCN(c2ccccc2)CC1`, the Potency is reported as inconclusive: 18.5 µM [inhibitor, single point]. With `CCCOC(=O)c1ccc(Oc2c(-c3ccc(OC)cc3O)n[nH]c2C)cc1` the Potency was inconclusive: 18.5 µM [inhibitor, single point]. For `CCOC(=O)NN1C(=O)c2ccccc2NC1C` (centres undefined), the Potency was “inactive”. With `C=CCn1c(SCC(=O)Nc2cc(OC)c(NC(=O)c3ccco3)cc2OC)nnc1-c1ccncc1` the Potency was inconclusive: 14.7 µM [inhibitor, single point]. In the case of `N#Cc1c(/N=C/N2CCOCC2)sc2c1CCCCC2`, the Potency is reported as inconclusive: 11.7 µM [inhibitor, single point]. With `O=C(O)CCN1CCc2ccccc21` the Potency was inconclusive: 0.0047 µM [inhibitor, full curve, poor fit]. With `O=C(COc1ccc(Br)cc1)NCCCNC(=O)c1cccnc1` the Potency was inconclusive: 18.5 µM [inhibitor, single point]. With `O=C(/C(=C(\[O-])c1ccccc1)[n+]1ccc2ccccc2c1)c1ccccc1` the Potency was active: 13.1 µM. For `O=C(/C=C/c1cccc([N+](=O)[O-])c1)NCCSCc1ccc(Cl)cc1`, the Potency was inconclusive: 10.4 µM [inhibitor, partial curve, poor fit]. For `Cc1ccc(NC(=O)c2ccc(Cl)nc2)cc1`, the Potency was “inactive”. In the case of `COc1ccc(-c2nnc3sc(CCN4C(=O)c5ccccc5C4=O)nn23)cc1`, the Potency is reported as inconclusive: 8.28 µM [inhibitor, partial curve]. In the case of `Cc1ccc(C(CNC(=O)c2ccc(Br)o2)N2CCN(C)CC2)cc1` (centres undefined), the Potency is reported as “inactive”. In the case of `CCOc1ccc(S(=O)(=O)N2CCCCC2)c2ccccc12`, the Potency is reported as inconclusive: 2.33 µM [inhibitor, full curve]. In the case of `Cc1cc(C)c(S(=O)(=O)N2CCN(C(=O)N(C)C)CC2)c(C)c1`, the Potency is reported as inconclusive: 3.7 µM [inhibitor, full curve]. In the case of `COc1ccc2cc3cc(C(=O)NCCN4CCN(Cc5ccccc5)CC4)oc3nc2c1`, the Potency is reported as “inactive”. With `COc1ccc(-c2cc(C(=O)Nc3ccc(S(N)(=O)=O)cc3)c3ccccc3n2)cc1OC` the Potency was inconclusive: 18.5 µM [inhibitor, single point]. In the case of `CC12CC(NC(=O)N1c1cccc(C(=O)N3CCN(c4ccccc4)CC3)c1)c1ccccc1O2` (centres undefined), the Potency is reported as inconclusive: 8.28 µM [inhibitor, partial curve, poor fit]. For `CCCCC1(CCCC)C(=O)NC(=Nc2cccc(C)c2)NC1=O`, the Potency was inconclusive: 0.262 µM [inhibitor, full curve, poor fit]. For `O=C(CSc1nnc(-c2cccc(F)c2)o1)N1CCCC1`, the Potency was “inactive”. For `Cc1ccc(C2(C)NC(=O)N(CC(=O)NCc3cccc(Cl)c3)C2=O)cc1` (centres undefined), the Potency was “inactive”. In the case of `COc1ccc(-c2[nH]nc3oc(=O)cc(C)c23)cc1`, the Potency is reported as active: 8.28 µM. In the case of `Cc1ccc(S(=O)(=O)N2CCC(=O)N(CCOC(=O)NCc3ccccc3)CC2)cc1`, the Potency is reported as “inactive”. With `O=C(CSc1nc(-c2ccco2)cc(C(F)(F)F)n1)NCCN1CCOCC1` the Potency was inconclusive: 18.5 µM [inhibitor, single point]. For `Cc1nn(Cc2noc(C(=O)NCc3ccc4c(c3)OCO4)n2)c(C)c1Br`, the Potency was “inactive”. In the case of `ONC(=Nc1cccc(C(F)(F)F)c1)c1cccnc1`, the Potency is reported as “inactive”. For `O=C(Nc1ccc(Br)cc1)/C(=C/c1cccc([N+](=O)[O-])c1)NC(=O)C1CCCCC1`, the Potency was inconclusive: 11.7 µM [inhibitor, single point]. With `CCOC(=O)CC1=NN(c2ccccc2)C(=O)/C1=C\c1ccc(N(C)C)cc1` the Potency was active: 5.86 µM. For `O=C(O)c1ccc(Nc2nc(-c3ccccc3)cs2)cc1`, the Potency was inconclusive: 18.5 µM [inhibitor, single point]. For `CNc1nc(Cl)c(SC)c(NCc2cccc(OC)c2)n1`, the Potency was “inactive”. With `COCCN(Cc1ccccc1)C(=O)c1cccc(S(=O)(=O)N2CCN(c3ccccc3)CC2)c1` the Potency was inconclusive: 18.5 µM [inhibitor, single point]. With `CC(C)NC(=S)NN=C1CCCCCCCCCCC1` the Potency was inconclusive: 4.65 µM [inhibitor, partial curve, poor fit]. For `COC(=O)c1ccc(-c2nc(-c3ccc(Br)o3)no2)cc1`, the Potency was “inactive”. For `CC1(C)Cc2cccc(OCC(=O)NCc3ccc(F)cc3)c2O1`, the Potency was inconclusive: 3.7 µM [inhibitor, partial curve, poor fit]. In the case of `COc1cccc(NC(=O)Nc2ccncc2)c1`, the Potency is reported as “inactive”. With `Cc1ccccc1NC(=O)c1c(C)[nH]c(=S)c(C#N)c1-c1ccco1` the Potency was “inactive”. For `CN(Cc1ccccc1)C(=O)C(C(=O)c1ccc(F)cc1)n1cc(Cl)ccc1=O` (centres undefined), the Potency was inconclusive: 2.94 µM [inhibitor, partial curve, poor fit]. In the case of `S=C(NCC1CCCO1)NC1CCCCC1` (centres undefined), the Potency is reported as “inactive”. For `COc1ccc(N(C(=O)c2cnccn2)C(C(=O)NC2CCCCC2)c2cc(OC)c(OC)c(OC)c2)cc1` (centres undefined), the Potency was “inactive”. For `Cn1nc(-c2ccccc2)c(C#N)c1Sc1cccc(Cl)c1`, the Potency was active: 10.4 µM. For `COc1ccc(NC(=O)CCCSc2ccccc2)cc1S(N)(=O)=O`, the Potency was inconclusive: 3.7 µM [inhibitor, partial curve]. In the case of `Cc1cccc(NC(=O)NN2CCN(C)CC2)c1C`, the Potency is reported as “inactive”. In the case of `CCCCCC(=O)Nc1c2c(nc3ccccc13)CCC2`, the Potency is reported as inconclusive: 6.57 µM [inhibitor, partial curve]. With `O=C(O)C(=O)/C(=C\c1ccccc1)c1ccc2ccccc2n1` the Potency was “inactive”. For `COc1ccc(NC(=O)N2CCCC2C(=O)NC2CCCC2)cc1` (centres undefined), the Potency was “inactive”. With `Cn1c(=O)[nH]c(=O)c2c1[nH]c(=S)n2Cc1ccc(Cl)cc1` the Potency was inconclusive: 11.7 µM [inhibitor, single point]. With `Cc1cc(OCc2cc(C(=O)NC(C)c3c(C)nn(C)c3C)no2)cc(C)c1Cl` (centres undefined) the Potency was inconclusive: 9.28 µM [inhibitor, partial curve]. In the case of `O=C(NCCc1ccccc1)c1cccc2c1C(=O)N(C1CCCCC1)C2`, the Potency is reported as inconclusive: 13.1 µM [inhibitor, single point]. For `CC(C)(C)c1ccc(S(=O)(=O)NCc2ccccn2)cc1`, the Potency was “inactive”. For `COC(=O)c1[nH]c2cc(OC)ccc2c1NC(=O)c1c(F)cccc1F`, the Potency was inconclusive: 4.65 µM [inhibitor, partial curve, poor fit]. For `Cn1c(NC(=O)CCC2CCCCC2)cc(=O)n(C)c1=O`, the Potency was inconclusive: 18.5 µM [inhibitor, single point]. With `CN(CCc1ccccn1)C(=O)c1nn2c(C(F)(F)F)cc(-c3ccco3)nc2c1Cl` the Potency was inconclusive: 10.4 µM [inhibitor, partial curve, poor fit]. In the case of `CC(C)C(NC(=O)c1c(F)cccc1F)C(=O)N1CCN(S(=O)(=O)/C=C/c2ccccc2)CC1` (centres undefined), the Potency is reported as inconclusive: 18.5 µM [inhibitor, single point]. With `CCC(=O)c1ccc(OCC(=O)OCC(=O)c2cc(C)n(C)c2C)cc1` the Potency was active: 13.1 µM. For `CCNc1nc(NCC)nc(N/N=C/c2ccc(O)c(OC)c2)n1`, the Potency was inconclusive: 14.7 µM [inhibitor, partial curve, poor fit]. With `CC(C)[C@H](N)c1nnc2n1N=C(c1ccc(Cl)cc1)CS2` the Potency was “inactive”. In the case of `CCNC(=S)N(Cc1ccc(OC)cc1)C1CC(=O)N(c2ccc(OCC)cc2)C1=O` (centres undefined), the Potency is reported as inconclusive: 16.5 µM [inhibitor, single point]. For `Cc1cc(=O)oc2c1c(C)nn2-c1ccc(Br)cc1`, the Potency was active: 2.94 µM. In the case of `CCOC(=O)c1ccccc1NC1c2ccccc2C(=O)N1C1CCN(C(=O)OCC)CC1` (centres undefined), the Potency is reported as inconclusive: 7.38 µM [inhibitor, partial curve, poor fit]. In the case of `Cn1c(=O)n(C)c2cc(N3CCCC3)c(NC(=O)c3cccc(F)c3)cc21`, the Potency is reported as inconclusive: 1.17 µM [inhibitor, full curve]. With `CCCN=C(C)C1=C(O)c2ccccc2C1=O` the Potency was “inactive”. With `CC(=O)c1cc(C(=O)N2CCc3c([nH]c4ccccc34)C2C2CCCCC2)[nH]n1` (centres undefined) the Potency was inconclusive: 0.0029 µM [inhibitor, full curve, poor fit].

— PubChem BioAssay AID504834 (National Center for Advancing Translational Sciences (NCATS), 2011)
On the % scale 0 is the no-effect control and ±100 the full control effect; potency means the concentration at half of the fitted maximal effect.
